Reference: the supplement of paper PMC5949888
Most values lie at the floor of the assay. Slopes are relative: functional sequences can read slightly below zero.

The substances below were run on Saccharomyces cerevisiae PS128 hsf1 delta, HSF1(1-493) fusion (assay: growth estimate (transactivation domain function in HSF1 fusion, heat-shock survival) (a.u. (slope of normalised read count over time)); higher = stronger growth at 37°C, i.e. more transactivation activity). Settings: library: random library.
For KLLVKAIAWLCFVNSRGLTS, the growth estimate was under -0.25.
With KLQLHMFAGISLGRI the growth estimate was under -0.25.
In the case of KLQRVLSCALRSPDEGKDLC, the growth estimate is reported as under -0.25.
For KLRNLSVSQSQRHRGAIWGG, the growth estimate was under -0.25.
KLRTLGPHELIP was tested, and the growth estimate was -0.246.
Substance KLRVKSQGDRAQ has a growth estimate of under -0.25.
For KLSGPRHIFRMNELFGLRAR, the growth estimate was under -0.25.
KLSGRVCTPER showed a growth estimate of under -0.25.
Work on KLSLKVQFSTVESLFAPKWS yielded a growth estimate of under -0.25.
Work on KLSVNHRGSLTF yielded a growth estimate of under -0.25.
Substance KLVNRRLDCRESYKH has a growth estimate of under -0.25.
KLVVLPTFPALMEGFFYHRT gave a growth estimate of under -0.25.
In the case of KLWSRRQCRYFGPYVRFVSG, the growth estimate is reported as under -0.25.
KMACRFQGMLALQPSP gave a growth estimate of under -0.25.
KMVHFVVVFG gave a growth estimate of under -0.25.
Work on KMWNSATQMEAHFLAAKWHT yielded a growth estimate of -0.246.
KNAKIVTCRGNMSGLCLTLG showed a growth estimate of under -0.25.
KNCVFSNCDFGEYH was tested, and the growth estimate was under -0.25.
KNDLGWARRISG gave a growth estimate of under -0.25.
With KNDVLRTAVQSANSGCWLNY the growth estimate was under -0.25.
Work on KNDYLVSCPVSLGSPCVKLG yielded a growth estimate of under -0.25.
Substance KNEESGC has a growth estimate of under -0.25.
In the case of KNGDKLSKKLTKGGRG, the growth estimate is reported as under -0.25.
Work on KNGTVIET yielded a growth estimate of under -0.25.
For KNILSASFISTIGIHTEERH, the growth estimate was under -0.25.
For KNKETGGPAVHPRHGCSQSH, the growth estimate was under -0.25.
KNLKLSCRLGMAVKR gave a growth estimate of under -0.25.
With KNQNVCQLHGIAYARRTPPQ the growth estimate was under -0.25.
KNRLTG showed a growth estimate of under -0.25.
Substance KNRQCIGK has a growth estimate of under -0.25.
KNSYQSNTTGKPRSLGFSI was tested, and the growth estimate was under -0.25.
KNTAGRNARTPANSASVERL showed a growth estimate of under -0.25.
KNTNLSRTVQPGTVLDYCTG gave a growth estimate of under -0.25.
KNYMTRLAYPARSRA was tested, and the growth estimate was under -0.25.
KPAVQAARGANSWMAPCYRC gave a growth estimate of under -0.25.
For KPCGTSPCVITERGVISPGS, the growth estimate was under -0.25.
KPCPLHPHEGARG showed a growth estimate of under -0.25.
In the case of KPDYGSREESKT, the growth estimate is reported as under -0.25.
With KPFRAETWDIRPEDLCVNDD the growth estimate was under -0.25.
KPGGNRCARTDT was tested, and the growth estimate was under -0.25.
Substance KPGR has a growth estimate of under -0.25.
Work on KPGSQRLFFSPRGAGSSWHS yielded a growth estimate of under -0.25.
In the case of KPLLNLIYCRCAQSDQLV, the growth estimate is reported as under -0.25.
With KPLSKA the growth estimate was under -0.25.
In the case of KPPRVTLPHSGSP, the growth estimate is reported as under -0.25.
KPVSLTRKLLSKNSSGCCAR was tested, and the growth estimate was under -0.25.
For KQLICL, the growth estimate was under -0.25.
For KQRGHFLSRSSLIVARRRWF, the growth estimate was under -0.25.
For KQRVIVRWRAY, the growth estimate was under -0.25.
With KQSRPQTQGYRLL the growth estimate was under -0.25.
KQTTVHEGKGSGGNCPNHTC gave a growth estimate of under -0.25.
KQYGILRVSLYSLSTSMNST gave a growth estimate of -0.245.
In the case of KQYISRLTAAGESIEARLVA, the growth estimate is reported as under -0.25.
Work on KRAAGGTRPSTRVPDSK yielded a growth estimate of under -0.25.
In the case of KRCEKGNADNVG, the growth estimate is reported as under -0.25.
For KRDGRQEVAVWEGSGLGGRT, the growth estimate was under -0.25.
With KRDKQYDAGRCQFCCCVQLV the growth estimate was under -0.25.
Substance KRHLSDVSSFAS has a growth estimate of under -0.25.
Work on KRIFREHLLSWLRPAGG yielded a growth estimate of under -0.25.
Work on KRKTGFL yielded a growth estimate of under -0.25.
In the case of KRLLKATMPIFCSDRGGG, the growth estimate is reported as -0.246.
KRN was tested, and the growth estimate was under -0.25.
KRNGQLIVRSRGVHPVWRRG showed a growth estimate of under -0.25.
KRPA showed a growth estimate of under -0.25.
Work on KRPGRCGYIRLPLSFGHTEG yielded a growth estimate of under -0.25.
KRPIKCVGKSQSRGKFDDSA gave a growth estimate of under -0.25.
Substance KRQIIYWLRYPVHQFKSLSC has a growth estimate of under -0.25.
With KRQQSLTAPPSCIMPDLDVP the growth estimate was under -0.25.
KRQSSNFGAESIQRHDAARP was tested, and the growth estimate was under -0.25.
KRRIPKSARPPARPSRLRDV was tested, and the growth estimate was under -0.25.
Substance KRSAIISKSRQSLPQG has a growth estimate of under -0.25.
For KRSSVCAYPHRSTQLPAPDA, the growth estimate was under -0.25.
KRTVTFCPGQTKAHGVSRFA was tested, and the growth estimate was under -0.25.
For KRVTRSRYVERFAMALDSVD, the growth estimate was under -0.25.
Substance KRWFVGVFV has a growth estimate of -0.0405.
KRWPFKQLVFSLEHAL was tested, and the growth estimate was under -0.25.
In the case of KRYRTPCLRDRSCMSYRLHS, the growth estimate is reported as under -0.25.
With KSCGRLCRYRFICPTDTCVP the growth estimate was under -0.25.
With KSCGSPNASELLFPFSAGLT the growth estimate was under -0.25.
Work on KSEDGPHYRHRGVGYR yielded a growth estimate of under -0.25.
KSELKYYSVRKASPEIGHPG was tested, and the growth estimate was under -0.25.
KSFVKTHGVCDCYISS showed a growth estimate of under -0.25.
For KSGGETEQCFRAPPLGHLLR, the growth estimate was under -0.25.
KSGPPL gave a growth estimate of under -0.25.
KSHVR was tested, and the growth estimate was under -0.25.
Substance KSKTAVCQSRATIELMGHRW has a growth estimate of under -0.25.
KSLGRGEFRS gave a growth estimate of under -0.25.
KSLHDVL gave a growth estimate of under -0.25.
Substance KSLVRRINSSILDSQVMRAV has a growth estimate of under -0.25.
KSNLRGEWQDSK gave a growth estimate of under -0.25.
For KSPFIDGLCSGSAHEGESFD, the growth estimate was under -0.25.
Substance KSPPACTPQTPVTCQI has a growth estimate of under -0.25.
Substance KSPRRCEYVL has a growth estimate of under -0.25.
Work on KSPTPIVEQVN yielded a growth estimate of under -0.25.
With KSQRMS the growth estimate was under -0.25.
KSRAKRSLVWQIVNGSFVVS gave a growth estimate of -0.25.
Work on KSRDVSRMVIYVRFGLEREE yielded a growth estimate of under -0.25.
KSRIKWATH showed a growth estimate of under -0.25.
